From patent US9164084B2, “Methods for determining aggressiveness of a cancer and treatment thereof” (Purdue Research Foundation, priority 2012, dated 2015)
For at least one compound, name, drawing or mass did not settle the structure.

Key:
[1] = test system: LNCaP-HP cells; experiment: Spectroscopic (SRL) imaging and Raman spectral analysis of lipid droplets in LNCaP-HP cells; assay type: cell-based, human
Experimental: The LNCaP-HP cells were treated with an ACAT inhibitor, avasimibe (structure shown in FIG. 13, Panel D), at 10 μM for 2 days.
(§1) A broad spectrum of human prostate epithelial cells has been examined. […] Loss of the tumor suppressor PTEN has been widely observed in both localized and metastatic prostate cancer and correlated with high Gleason grade. With loss of PTEN, PI3K signaling is hyper-activated, which, in turn, leads to AKT activation. […] AKT mediates the phosphorylation and activation of mTOR complex 1 (mTORC1) which plays critical roles in the regulation of protein and lipid biosynthesis. To determine whether the PI3K/AKT/mTOR pathway regulates cholesteryl ester accumulation, both types of cholesteryl ester rich cell lines, PC-3 and high passage LNCaP (LNCaP-HP), were treated with LY294002 (PI3K inhibitor), MK2206 (AKT inhibitor), and Rapamycin (mTOR inhibitor), respectively.
(§2) It is well known that LDL enters a cell via LDL receptor (LDLr) and traffics to the late endosome and lysosome where it is hydrolyzed to free fatty acids and free cholesterol. The excess free cholesterol together with the fatty acyl CoA substrate is then converted to cholesteryl ester by Acyl coenzyme A: cholesterol acyltransferase (ACAT) and stored in lipid droplets. Thus, cells were separately treated with Avasimibe and Sandoz 58-035, two different ACAT inhibitors. […] The significant reduction of cholesteryl ester accumulation upon Avasimibe treatment was further confirmed by an independent biochemical assay of cell lysates.

[2] = test system: PC-3 cells; experiment: Spectroscopic imaging and Raman spectral analysis of lipid droplets in PC-3 cells; assay type: cell-based, human
From the text: as §1
Because cholesterol can be either de novo synthesized via the mevalonate pathway or taken up from exogenous lipoproteins, the source of cholesterol used for cholesteryl ester accumulation was investigated. PC-3 cell were first treated with Simvastatin, an inhibitor of 3-hydroxy-3-methylglutaryl coenzyme A HMG-CoA reductase, the rate-limiting enzyme of the mevalonate pathway. […] In contrast, after treating cells with lipoprotein-deficient serum (LPDS), lipid droplets nearly disappeared in cholesteryl ester rich PC-3 and LNCaP-HP cells (FIG. 29, Panel A), but remained the same amount in cholesteryl ester poor cells including LNCaP-LP, DU145, and C4-2. Re-addition of low-density lipoprotein (LDL) into the LPDS medium restored lipid droplets and cholesteryl ester in both PC-3 and LNCaP-HP cells (FIG. 29, Panel B).
as §2

Structure (SMILES)	cholesteryl ester percentage in the remaining lipid droplets [1]	lipid droplet amount [1]	cholesteryl ester percentage in lipid droplets (spectral analysis) [2]	lipid droplet amount [2]
CO[C@H]1C[C@@H]2CC[C@@H](C)[C@@](O)(O2)C(=O)C(=O)N2CCCC[C@H]2C(=O)O[C@H]([C@H](C)C[C@@H]2CC[C@@H](O)[C@H](OC)C2)CC(=O)[C@H](C)/C=C(\C)[C@@H](O)[C@@H](OC)C(=O)[C@H](C)C[C@H](C)/C=C/C=C/C=C/1C [Rapamycin]	significantly reduced	significantly reduced	significantly reduced	not much reduced
O=c1cc(N2CCOCC2)oc2c(-c3ccccc3)cccc12 [LY294002]	–	completely eliminated	significantly reduced	not much reduced
CCC(C)(C)C(=O)O[C@H]1C[C@@H](C)C=C2C=C[C@H](C)[C@H](CC[C@@H]3C[C@@H](O)CC(=O)O3)[C@H]21 [Simvastatin]	–	–	nor significantly reduced cholesteryl ester percentage	neither decreased lipid droplet amount
